The list is a part of this screen's results and no random one: it gathers tests that were run many times, whatever their T/C, doses with no T/C, and many T/C values between a quarter and a half above the control. Other doses and runs of a compound stand elsewhere. T/C gives the treated animals as a percentage of the vehicle group. Some doses have a count of surviving animals in place of a T/C: the source holds a T/C of zero for them, seemingly a mark for toxic or unscored doses. Some survivor counts are full or nearly so, which does not show that the dose was tolerated: the source hardly ever lists a survival T/C far under the control, and the zero likely stands for such cases as well. Survivors were counted at the toxicity check, usually on the fifth day, unless a day is given; later deaths do not show. Schedule codes are those of the source, taken here to give the interval after Q, in days (D) or hours (H), and the number of doses after X. Some entries hold several experiments; the results are listed from low to high. Where survival is the endpoint, the PubChem record calls one and a half times the control and up active, and a quarter to a half above the control has no call in these data; cut-offs in other NCI protocols can differ. Some T/C values are followed by the survivors on the day toxicity was checked, most often the fifth; where none is given, no animal had died by that day.
Tested on: BDF1 mice, P388 leukemia ip, median survival T/C
Assay: NCI In Vivo Anticancer Drug Screen. Data for tumor model P388 Leukemia (intraperitoneal) in B6D2F1 (BDF1) mice
Details: T/C endpoint: median survival time, higher T/C = longer survival
Experimental: The antitumor activity of compounds was measured in mice bearing transplantable tumors. Survival or tumor size were measured and the results are expressed as the measurement made in the treated group (T) divided by the measurement made in the vehicle treated control group (C). The tumor model used in this assay is P388 Leukemia (intraperitoneal) in B6D2F1 (BDF1) mice

[1] = dose: 25.0 mg/kg/injection, schedule: Q01DX009 (ip), vehicle: saline with Tween-80
[2] = dose: 400.0 mg/kg/injection, schedule: Q04DX003 (ip), vehicle: saline with Tween-80
[3] = dose: 200.0 mg/kg/injection, schedule: Q01DX009 (ip), vehicle: saline with Tween-80
[4] = dose: 5.0 mg/kg/injection, schedule: Q01DX009 (ip), vehicle: alcohol

With O=C1C=C(O/C=C/C(C(F)(F)F)C(F)(F)F)C(=O)c2ccccc21 the T/C [1] was 127 % of control and the T/C (dose: 50.0 mg/kg/injection, schedule: Q01DX009 (ip), vehicle: saline with Tween-80) was 145 % of control [5 of 6 alive].

In the case of CCOC(=O)c1c[nH]c2cc(Cl)ccc2c1=O, the survivor count (dose: 150.0 mg/kg/injection, schedule: Q04DX003 (ip), vehicle: Klucel (hydroxypropylcellulose) (HPC)) is reported as 6 of 6 and the survivor count (dose: 300.0 mg/kg/injection, schedule: Q04DX003 (ip), vehicle: Klucel (hydroxypropylcellulose) (HPC)) is reported as 6 of 6.

For O=C1C2CC=CCC2C(=O)N1SC(Cl)(Cl)Cl (centres undefined), the survivor count [1] was 2 of 6.

With OCCC1CCN(CC/C=C2/c3ccc(F)cc3Sc3ccc(C(F)(F)F)cc32)CC1 the survivor count (dose: 6.25 mg/kg/injection, schedule: Q01DX001 (ip), vehicle: saline) was 6 of 6, the survivor count (dose: 12.5 mg/kg/injection, schedule: Q01DX001 (ip), vehicle: saline) was 6 of 6 and the survivor count (dose: 25.0 mg/kg/injection, schedule: Q01DX001 (ip), vehicle: saline) was 2 of 6.

O=C1NC(=O)C2(CCCc3ccc(N(CCCl)CCCl)cc32)N1 (centres undefined) was tested, and the T/C (dose: 3.13 mg/kg/injection, schedule: Q04DX003 (ip), vehicle: saline with Tween-80) was 145 % of control and the survivor count [2] was 2 of 6.

For O=C(CBr)Nc1nccs1, the survivor count (dose: 3.12 mg/kg/injection, schedule: Q01DX009 (ip), vehicle: saline) was 6 of 6, the survivor count (dose: 6.25 mg/kg/injection, schedule: Q04DX003 (ip), vehicle: saline) was 6 of 6 and the T/C (dose: 12.5 mg/kg/injection, schedule: Q04DX003 (ip), vehicle: saline) was 127 % of control. For the same compound, the survivor count (dose: 50.0 mg/kg/injection, schedule: Q04DX003 (ip), vehicle: saline) was 4 of 6.

In the case of C[n+]1c2ccccc2nc2c(N)cc(N)cc21, the T/C (dose: 11.0 mg/kg/injection, schedule: Q01DX009 (ip), vehicle: saline with Tween-80) is reported as 126 and 144 % of control, the T/C (dose: 17.0 mg/kg/injection, schedule: Q01DX009 (ip), vehicle: saline with Tween-80) is reported as 133 % of control and the T/C (dose: 26.0 mg/kg/injection, schedule: Q01DX009 (ip), vehicle: saline with Tween-80) is reported as 140 % of control. The T/C (dose: 40.0 mg/kg/injection, schedule: Q01DX009 (ip), vehicle: saline with Tween-80) was 145 % of control, the survivor count (dose: 60.0 mg/kg/injection, schedule: Q01DX009 (ip), vehicle: saline with Tween-80) was 6 of 6 and the survivor count (dose: 62.0 mg/kg/injection, schedule: Q01DX009 (ip), vehicle: saline with Tween-80) was 3 of 6. For the same compound, the survivor count (dose: 62.0 mg/kg/injection, schedule: Q01DX009 (ip), vehicle: water) was 3 of 6, the survivor count (dose: 93.0 mg/kg/injection, schedule: Q01DX009 (ip), vehicle: saline with Tween-80) was 0 of 6 and the survivor count (dose: 93.0 mg/kg/injection, schedule: Q01DX009 (ip), vehicle: water) was 0 of 6.

C[CH2][Ge]([CH2]C)[CH2]C.C[CH2][Ge]([CH2]C)[CH2]C.C[CH2][Ge]([CH2]C)[O][Ge]([CH2]C)[CH2]C was tested, and the T/C (dose: 100.0 mg/kg/injection, schedule: Q01DX009 (ip), vehicle: saline with Tween-80) was 132 % of control, the T/C [3] was 141 % of control and the survivor count [3] was 5 of 6.

CC1=CC(=O)c2c(O)ccc(O)c2C1=O was tested, and the survivor count (dose: 1.25 mg/kg/injection, schedule: Q01DX009 (ip), vehicle: alcohol) was 2 of 6, the T/C (dose: 2.5 mg/kg/injection, schedule: Q01DX009 (ip), vehicle: alcohol) was 138 % of control [5 of 6 alive] and the T/C [4] was 125 % of control. For the same compound, the survivor count [4] was 1 of 6 and the survivor count (dose: 10.0 mg/kg/injection, schedule: Q01DX009 (ip), vehicle: alcohol) was 0 of 6 and 1 of 6.

In the case of O=[N+]([O-])c1ccc([N+](=O)[O-])c(Cl)c1, the survivor count (dose: 200.0 mg/kg/injection, schedule: Q04DX003 (ip), vehicle: Klucel (hydroxypropylcellulose) (HPC)) is reported as 6 of 6, the survivor count (dose: 225.0 mg/kg/injection, schedule: Q01DX009 (ip), vehicle: Klucel (hydroxypropylcellulose) (HPC)) is reported as 5 of 6 and the survivor count (dose: 335.0 mg/kg/injection, schedule: Q01DX009 (ip), vehicle: Klucel (hydroxypropylcellulose) (HPC)) is reported as 5 of 6. For the same compound, the survivor count (dose: 400.0 mg/kg/injection, schedule: Q04DX003 (ip), vehicle: Klucel (hydroxypropylcellulose) (HPC)) was 6 of 6.

In the case of O=CC(S)CO (centres undefined), the T/C (dose: 25.0 mg/kg/injection, schedule: Q01DX010 (ip), vehicle: saline) is reported as 133 % of control, the T/C (dose: 50.0 mg/kg/injection, schedule: Q01DX010 (ip), vehicle: saline) is reported as 125 % of control and the T/C (dose: 100.0 mg/kg/injection, schedule: Q01DX010 (ip), vehicle: saline) is reported as 129 % of control. The T/C (dose: 200.0 mg/kg/injection, schedule: Q01DX010 (ip), vehicle: carboxymethylcellulose (CMC)) was 133 % of control, the T/C (dose: 200.0 mg/kg/injection, schedule: Q01DX010 (ip), vehicle: saline) was 133 % of control and the survivor count (dose: 400.0 mg/kg/injection, schedule: Q01DX010 (ip), vehicle: carboxymethylcellulose (CMC)) was 0 of 6.

In the case of CC1CCC2(OC1)OC1C(O)C3C4CCC5CC(OC6OC(CO)C(OC7OC(CO)C(O)C(OC8OCC(O)C(O)C8O)C7OC7OC(CO)C(O)C(OC8OC(CO)C(O)C(O)C8O)C7O)C(O)C6O)C(O)CC5(C)C4CCC3(C)C1C2C (centres undefined), the survivor count (dose: 100.0 mg/kg/injection, schedule: Q04DX003 (ip), vehicle: saline with Tween-80) is reported as 1 of 6, the survivor count (dose: 200.0 mg/kg/injection, schedule: Q04DX003 (ip), vehicle: saline with Tween-80) is reported as 0 of 6 and the survivor count [2] is reported as 0 of 6.

With COc1cc2c(cc1OC)C(NC(C)=O)N(C)c1c-2ccc2cc3c(cc12)OCO3 (centres undefined) the T/C (dose: 20.0 mg/kg/injection, schedule: Q01DX009 (ip), vehicle: saline) was 131 and 145 % of control, the T/C (dose: 40.0 mg/kg/injection, schedule: Q01DX009 (ip), vehicle: saline) was 140 % of control and the T/C (dose: 80.0 mg/kg/injection, schedule: Q01DX009 (ip), vehicle: saline) was 131 % of control. The survivor count (dose: 120.0 mg/kg/injection, schedule: Q01DX009 (ip), vehicle: saline) was 6 of 6 and the survivor count (dose: 240.0 mg/kg/injection, schedule: Q01DX009 (ip), vehicle: saline) was 3 of 6 and 5 of 6.

Reference: PubChem BioAssay AID328 (DTP/NCI, 2004)
